According to paper PMC8494340:
Construct, isoform or probe ends are uncertain for at least one entry. For some assays here: A negative result means that nothing was seen under these conditions. For some assays here: At least one verdict was read from the data and is not stated in words by the source. For some assays here: Whether high values mean tight binding is not given here for every scale.

Sequences of proteins named here, by UniProt entry; tags and fusion partners are left off. Residues count along the entry.
UniProt P28159, 98-523: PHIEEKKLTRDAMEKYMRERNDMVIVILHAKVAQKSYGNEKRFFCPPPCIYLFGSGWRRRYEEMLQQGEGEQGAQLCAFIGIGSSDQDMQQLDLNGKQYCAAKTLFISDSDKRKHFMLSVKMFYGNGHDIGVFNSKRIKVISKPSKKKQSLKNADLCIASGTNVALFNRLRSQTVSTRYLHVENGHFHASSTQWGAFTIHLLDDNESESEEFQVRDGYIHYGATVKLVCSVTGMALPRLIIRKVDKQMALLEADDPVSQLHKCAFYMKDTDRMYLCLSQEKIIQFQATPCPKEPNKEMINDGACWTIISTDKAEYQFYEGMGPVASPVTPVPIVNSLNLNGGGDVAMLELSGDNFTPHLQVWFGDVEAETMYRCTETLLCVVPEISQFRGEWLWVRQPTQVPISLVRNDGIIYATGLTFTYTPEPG

Assays:
[1] = biological target: Su(H) (CSL) (Drosophila) (UniProt P28159); experiment: EMSA; settings: room temperature 20 min (temporal competition: RT 10 min then 4 C), salt and pH not given (refs 63,64), labeled probe 3.5 nM in competition assays, recombinant protein, residues 98-523
[2] = tested on: Su(H) (CSL) + Hairless; experiment: EMSA; settings: 2 uM Hairless, Su(H) 2.5-160 nM, additive, room temperature 20 min (temporal competition: RT 10 min then 4 C), salt and pH not given (refs 63,64), labeled probe 3.5 nM in competition assays, recombinant protein
[3] = tested on: Su(H) (CSL) + NICD (Notch intracellular domain) + Mastermind (Mam); experiment: EMSA; settings: 2 uM NICD/Mam, Su(H) 2.5-160 nM, salt and pH not given (refs 63,64), labeled probe 3.5 nM in competition assays, recombinant protein
[4] = biological target: Su(H) (CSL) (Drosophila) (UniProt P28159); experiment: competition with a labelled probe; settings: unlabeled 8.75-140 nM vs 3.5 nM labeled 2xCSL17, 40 nM Su(H); EMSA, room temperature 20 min (temporal competition: RT 10 min then 4 C); salt and pH not given (refs 63,64); labeled probe 3.5 nM in competition assays; recombinant protein; residues 98-523
[5] = Su(H) 0.94-15 nM, non-cooperative

| Sequence | binding result ([1]; Su(H) 2.5-160 nM, additive) | binding result [2] | binding result [1, 5] | binding result ([2]; non-cooperative) | binding result [4] | binding result ([1]; Su(H) 0.94-15 nM) | other results |
| --- | --- | --- | --- | --- | --- | --- | --- |
| GCTACGTGGGAAAGGAGCAAACTGCGTCGTGGGAATTCGTAGTGCGGGCGTGGCT (double strand) [2xCSL15] | binds | binds | – | – | – | – | binding result ([3]; not cooperative, room temperature 20 min (temporal competition: RT 10 min then 4 C)): binds |
| CGAACGTGGGAAACCTAGGCTAGAGGCACTTCCCACGACTAGTGCGGGCGTGGCT (double strand) [1xSPS17] | binds | binds | – | – | – | – | binding result ([3]; cooperative, room temperature 20 min (temporal competition: RT 10 min then 4 C)): binds |
| CGAACGTGGGAAACCTAGGCTAGAGGCACCGTGGGAAACTAGTGCGGGCGTGGCT (double strand) [2xCSL17] | – | – | binds | binds | binds | – | binding result ([3]; non-cooperative (C close to 1), rapidly competed by 10x cold 2xCSL17, room temperature 20 min (temporal competition: RT 10 min then 4 C)): binds |
| GCTACGAGGCAAAGGAGCAAACTGCGTTTGCCTCGTTCGTAGTGCGGGCGTGGCT (double strand) [1xSPS15mut] | – | – | – | – | – | no binding | – |
| GCTACGTGGGAAAGGAGCAAACTGCGTTTCCCACGTTCGTAGTGCGGGCGTGGCT (double strand) [1xSPS15] | – | – | binds | binds | binds | – | binding signal (cooperativity factor C (Kd1/Kd2)) ([3]; cooperative, 2NCM dissociates more slowly than from 2xCSL17, room temperature 20 min (temporal competition: RT 10 min then 4 C)): 16.9 |
| CGAACGAGGCAAACCTAGGCTAGAGGCACCGAGGCAAACTAGTGCGGGCGTGGCT (double strand) [2xCSL17mut] | – | – | – | – | no binding | no binding | – |
